Values quoted from earlier work, collected in US20240269109A1 (STICHTING MEDISCHE KLINIEK VELSEN, priority 2021, published 2024).
“And” between values parts separate entries of the source, which are not always exact repeats. Equal values may be shown once.

Sequences of proteins named here, by UniProt entry; tags and fusion partners are left off. A change or cut given only in a name is not applied to a line headed by its entry.
UniProt Q99572: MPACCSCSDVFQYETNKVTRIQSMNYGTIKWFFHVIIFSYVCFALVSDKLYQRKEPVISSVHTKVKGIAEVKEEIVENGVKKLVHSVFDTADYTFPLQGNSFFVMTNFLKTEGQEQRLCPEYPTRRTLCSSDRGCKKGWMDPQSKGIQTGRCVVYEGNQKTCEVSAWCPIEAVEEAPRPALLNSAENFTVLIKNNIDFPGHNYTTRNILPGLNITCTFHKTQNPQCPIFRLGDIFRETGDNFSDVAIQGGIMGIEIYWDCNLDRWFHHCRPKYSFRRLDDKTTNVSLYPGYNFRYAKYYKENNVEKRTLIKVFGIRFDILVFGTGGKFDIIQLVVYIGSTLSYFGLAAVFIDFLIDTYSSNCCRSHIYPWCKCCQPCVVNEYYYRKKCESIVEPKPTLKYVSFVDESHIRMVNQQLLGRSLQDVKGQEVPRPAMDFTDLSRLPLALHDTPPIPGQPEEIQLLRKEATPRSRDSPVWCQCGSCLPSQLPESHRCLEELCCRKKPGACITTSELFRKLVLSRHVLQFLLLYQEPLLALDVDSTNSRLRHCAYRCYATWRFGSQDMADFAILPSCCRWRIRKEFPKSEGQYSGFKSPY

Biological target: P2X7 receptor (Homo sapiens, UniProt Q99572)
Conditions: read-out: IC50 for blocking the P2X7 receptor (plasma concentration required); cited from earlier work

CCN(CC)CC(=O)Nc1c(C)cccc1C [lidocaine]
IC50: 300 µM and 282 µM
